Reference: PubChem BioAssay AID1347076 (National Center for Advancing Translational Sciences (NCATS), 2019)
Out of some 400,000 compounds screened, about 13,000 (3.2%) were called active. The shares of active, inactive and inconclusive entries below differ from those in the screen. The call rests on the fitted dose curve; in most records, active means well fitted cell-killing curve with a large enough effect; inconclusive means small, poorly fitted or top-dose-only effect, or effect the other way; inactive means flat fitted curve, though single readings scatter. Potencies of inconclusive entries are doubtful fits and often do not repeat.

assay: qHTS assay for MDR1-selective chemotherapeutics: Primary screen using the drug-selected MDR subline cells KB-V1; settings: KB-V1 MDR cells viability, CellTiter-Glo, 72 h; activity change, negative = cytotoxicity: at 46.1 µM (top of the series); further: nearly all actives have a fitted effect of over 60% in size
How it was run: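 Potencies derive from concentration-effect curves fitted to normalized luminescence (CellTiter-Glo) of KB-V1 cells treated for 72 h at 37 degrees C in phenol-red-free DMEM containing 10% FBS.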
On the % scale 0 is the no-effect control and ±100 the full control effect; potency means the concentration at half of the fitted maximal effect.

**Q.** Which Potency does the source give for `CCc1nn2c(=O)cc(COC(=O)c3ccccc3)nc2s1` here?
**A.** inconclusive: 0.116 µM [rising, full curve]

**Q.** With `CCN1C(=O)[C@H]2[C@@H](c3ccc(C(F)(F)F)cc3)N[C@]3(CCCN(Cc4ccc(Cl)cc4)C3=O)[C@H]2C1=O` as the molecule, how does the “activity change, negative = cytotoxicity” value read?
**A.** inactive: -3.29%

**Q.** For `CCOC(=O)c1ccc(N2C(=O)[C@@H](c3ccccc3)[C@H]2c2ccccc2)cc1`, which “activity change, negative = cytotoxicity” value is on record?
**A.** inactive: -5.48%

**Q.** Which Potency does the source give for `Cc1nc2ccccn2c1-c1nnco1` here?
**A.** inconclusive: 23.1 µM [rising, single point]

**Q.** For `Fc1cccc(Nc2ncnc3c2cnn3-c2ccccc2)c1`, which Potency is on record?
**A.** inconclusive: 29.1 µM [cytotoxic, single point]

**Q.** For `COc1ccc(N/N=C(\C#N)C(=N)N2CCCCC2)cc1`, which “activity change, negative = cytotoxicity” value is on record?
**A.** inactive: -0.598%

**Q.** For `O=C1OCCC1Sc1nnc(-c2cccc(Br)c2)o1` (centres undefined), which Potency is on record?
**A.** inconclusive: 35.5 µM [rising, single point]

**Q.** For `COc1ccc(N(C(=O)c2snc(C(N)=O)c2N)C(C(=O)NC2CCCCC2)c2ccc(C)o2)cc1` (centres undefined), which Potency is on record?
**A.** inconclusive: 29.1 µM [rising, single point]

**Q.** With `Cc1noc(C)c1-c1ccc(C(=O)Nc2ccccc2)c2occc12` as the molecule, how does the Potency read?
**A.** inconclusive: 29.1 µM [cytotoxic, single point]

**Q.** For `O=[N+]([O-])c1cc(C(F)(F)F)ccc1NCCc1c[nH]c2ccccc12`, which Potency is on record?
**A.** inconclusive: 29.1 µM [cytotoxic, single point]

**Q.** With `CC1(NC(=S)Nc2ccc3ccccc3c2)CCS(=O)(=O)C1` (centres undefined) as the molecule, how does the “activity change, negative = cytotoxicity” value read?
**A.** inactive: 0%

**Q.** With `O=S(=O)(c1ccc(Cl)cc1)c1nc(-c2cccs2)oc1SCc1ccc(F)cc1` as the molecule, how does the Potency read?
**A.** inconclusive: 18.4 µM [cytotoxic, partial curve, poor fit]

**Q.** With `CN(C1CCCCC1)S(=O)(=O)c1ccc(NC(=O)Cn2nc(-c3ccc(F)cc3)ccc2=O)cc1` as the molecule, how does the Potency read?
**A.** inconclusive: 6.51 µM [cytotoxic, full curve]

**Q.** For `COc1ccc(NS(=O)(=O)c2cc(C)ccc2NC(=O)c2cc(C)oc2C)cc1`, which Potency is on record?
**A.** active: 0.259 µM

**Q.** With `Cc1cc(Nc2ccc(Br)cc2F)n2ncnc2n1` as the molecule, how does the Potency read?
**A.** inconclusive: 20.6 µM [cytotoxic, single point]

**Q.** With `COCCn1c(-c2ccc(OC)cc2)cnc1SCC(=O)Nc1ccc(OC)cc1OC` as the molecule, how does the Potency read?
**A.** inconclusive: 6.51 µM [cytotoxic, full curve]

**Q.** For `Cc1ccc(N(Cc2cc3cc(C)ccc3[nH]c2=O)S(=O)(=O)c2ccccc2)cc1`, which Potency is on record?
**A.** inconclusive: 29.1 µM [cytotoxic, single point]

**Q.** For `CCn1c(SCC(=O)NC2CCCCC2)nc2c(c1=O)SC(C)C2` (centres undefined), which Potency is on record?
**A.** active: 2.31 µM

**Q.** For `Cc1cc(C)nc(/N=C(\N)Nc2ccc([N+](=O)[O-])cc2)n1`, which Potency is on record?
**A.** inconclusive: 14.6 µM [cytotoxic, partial curve, poor fit]

**Q.** Which Potency does the source give for `O=C(COC(=O)CCc1c[nH]c2ccccc12)Nc1ccccc1C(F)(F)F` here?
**A.** inconclusive: 29.1 µM [cytotoxic, single point]

**Q.** With `COc1ccc(O)c(C(=O)c2cnn(C(=O)c3cccc(N(C)C)c3)c2)c1` as the molecule, how does the Potency read?
**A.** inconclusive: 29.1 µM [rising, partial curve, poor fit]

**Q.** For `c1ccc(C(c2ccccc2)N2CCN(Cc3nnnn3C3CCCC3)CC2)cc1`, which Potency is on record?
**A.** inconclusive: 25.9 µM [cytotoxic, single point]

**Q.** With `C1=C(c2cn(-c3nc4ccccc4s3)nn2)CCCC1` as the molecule, how does the Potency read?
**A.** inconclusive: 20.6 µM [cytotoxic, partial curve, poor fit]

**Q.** With `COC(=O)[C@@]12CCCCN1[C@H](c1ccc(-c3ccc(Cl)c(Cl)c3)c(OC)c1)[C@H]1C(=O)N(C)C(=O)[C@H]12` as the molecule, how does the “activity change, negative = cytotoxicity” value read?
**A.** inactive: -12.6%

**Q.** For `O=C(COc1ccccc1)Nc1ccc(N2CCN(C(=O)c3ccco3)CC2)cc1`, which Potency is on record?
**A.** inconclusive: 20.6 µM [cytotoxic, partial curve]

**Q.** Which “activity change, negative = cytotoxicity” value does the source give for `O=C1CCCN1c1ccc(N2CCCC2=O)cc1` here?
**A.** inactive: 9.32%

**Q.** For `COc1ccc(N2CCN(C(=O)C3CCCN(S(=O)(=O)c4ccc(C)cc4)C3)CC2)cc1` (centres undefined), which Potency is on record?
**A.** inconclusive: 5.8 µM [cytotoxic, partial curve]

**Q.** With `Nc1nc(NCc2ccccc2)nc(Nc2cccc(F)c2)c1[N+](=O)[O-]` as the molecule, how does the Potency read?
**A.** inconclusive: 4.11 µM [cytotoxic, full curve, poor fit]

**Q.** Which Potency does the source give for `CN(c1ccc(F)cc1)S(=O)(=O)c1ccc(Cl)c(C(=O)OCC(=O)NCc2ccco2)c1` here?
**A.** inconclusive: 5.8 µM [rising, full curve, poor fit]

**Q.** Which “activity change, negative = cytotoxicity” value does the source give for `CC1CCC(NC(=O)COC(=O)c2n[nH]c(=O)c3ccccc23)CC1` (centres undefined) here?
**A.** inactive: 9.65%

**Q.** For `CN(C)c1nc(NS(=O)(=O)c2ccc(Cl)cc2)nc(N(C)C)n1`, which Potency is on record?
**A.** active: 13 µM

**Q.** Which Potency does the source give for `CCc1ccc(CNC(=O)c2cc3n(n2)CCCN(Cc2ccccc2)C3=O)cc1` here?
**A.** inconclusive: 23.1 µM [cytotoxic, partial curve, poor fit]

**Q.** For `CCOc1ccccc1/C=C/c1cc(C(=O)O)c2ccccc2n1`, which “activity change, negative = cytotoxicity” value is on record?
**A.** inactive: 13%

**Q.** Which Potency does the source give for `Cc1ccc(NC(=O)Cc2sc(C)nc2-c2ccc(C)cc2)cc1` here?
**A.** inconclusive: 25.9 µM [cytotoxic, partial curve, poor fit]

**Q.** With `Cc1ccc(C)c(C(=O)COC(=O)c2cc([N+](=O)[O-])ccc2NCCO)c1` as the molecule, how does the Potency read?
**A.** inconclusive: 16.4 µM [cytotoxic, single point]

**Q.** Which activity change, negative = cytotoxicity does the source give for `CCCC/C(C)=N\NC(=O)CNS(=O)(=O)c1ccc([N+](=O)[O-])cc1` here?
**A.** inconclusive: 41.7%

**Q.** For `Cc1ccc(OCCNC(=O)C(=O)NCc2ccco2)cc1`, which Potency is on record?
**A.** inconclusive: 6.51 µM [cytotoxic, partial curve]

**Q.** With `Cc1ccc(C)c(N(C(=O)Cn2nnc(-c3cccs3)n2)C(C(=O)NC2CCCC2)c2ccncc2)c1` (centres undefined) as the molecule, how does the “activity change, negative = cytotoxicity” value read?
**A.** inactive: 0.864%

**Q.** Which “activity change, negative = cytotoxicity” value does the source give for `O=C(NCc1cccs1)c1cc(-c2ccccc2)on1` here?
**A.** inactive: 0.526%

**Q.** For `S=C(NC1CCCCC1)NC1CC2C=CC1C2` (centres undefined), which Potency is on record?
**A.** inconclusive: 29.1 µM [cytotoxic, single point]

**Q.** For `O=C(CNCc1ccc(F)cc1)Nc1ccccc1-c1ccccc1`, which Potency is on record?
**A.** active: 13 µM

**Q.** With `COC(=O)c1noc(-c2ccc(OC)cc2)n1` as the molecule, how does the Potency read?
**A.** inconclusive: 25.9 µM [rising, single point]

**Q.** Which “activity change, negative = cytotoxicity” value does the source give for `c1ccc2c(CCNc3ncnc4nc[nH]c34)c[nH]c2c1` here?
**A.** inactive: -11.2%

**Q.** For `COc1ccccc1/C=N/NC(=O)c1ccc(-c2ccccc2)cc1`, which “activity change, negative = cytotoxicity” value is on record?
**A.** inactive: -6.02%

**Q.** With `Cc1cc(C)cc(OCCNC(=O)C(C)N2C(=O)c3ccccc3C2=O)c1` (centres undefined) as the molecule, how does the Potency read?
**A.** inconclusive: 16.4 µM [rising, single point]

**Q.** For `COc1ccc(NC(=O)C2=C(C)NC(=S)NC2c2ccc(O)c(OC)c2)cc1` (centres undefined), which Potency is on record?
**A.** inconclusive: 14.6 µM [rising, single point]

**Q.** For `CCOC(=O)Cc1ccc(NC(=O)N2CCSc3ccccc32)cc1`, which “activity change, negative = cytotoxicity” value is on record?
**A.** inactive: 7.1%

**Q.** Which activity change, negative = cytotoxicity does the source give for `COc1ccccc1/C=C/C(=O)OCC(=O)Nc1ccc2c(c1)OCCO2` here?
**A.** inconclusive: -30.9%

**Q.** With `COc1ccc(NC(=O)c2cc(-c3sc(NC(=O)c4ccccc4)nc3C)n(Cc3ccccc3)n2)cc1` as the molecule, how does the “activity change, negative = cytotoxicity” value read?
**A.** inactive: -3.26%

**Q.** With `COc1ccc2nc(-c3ccco3)c(-c3ccco3)nc2c1` as the molecule, how does the Potency read?
**A.** inconclusive: 8.2 µM [cytotoxic, partial curve]

**Q.** Which “activity change, negative = cytotoxicity” value does the source give for `CC(C)(O)C#Cc1ccc(C(=O)Nc2ccc3c(c2)OCO3)s1` here?
**A.** inactive: 13.3%

**Q.** For `CN1c2ccc(C=O)c3c(C=O)ccc(c23)N(C)C1(C)C`, which Potency is on record?
**A.** active: 18.4 µM

**Q.** Which Potency does the source give for `Cc1ccc(-n2nc3c(=O)n(CCCC(=O)NCC(C)c4ccccc4)nc(C)c3c2C)cc1` (centres undefined) here?
**A.** inconclusive: 29.1 µM [cytotoxic, single point]

**Q.** Which “activity change, negative = cytotoxicity” value does the source give for `O=C(NCC1CCCO1)c1cccc(S(=O)(=O)N2CCCCC2)c1` (centres undefined) here?
**A.** inactive: -6.24%

**Q.** For `COc1ccccc1C1CCN(c2cc(O)ccc2[N+](=O)[O-])CC1`, which Potency is on record?
**A.** inconclusive: 20.6 µM [cytotoxic, single point]

**Q.** With `Cc1cc(C)nc(N2CCCC(C(=O)NC(C)CCc3ccco3)C2)n1` (centres undefined) as the molecule, how does the Potency read?
**A.** active: 10.3 µM

**Q.** With `Cc1c(N=C2C(=O)Nc3ccccc32)c(=O)n(-c2ccccc2)n1C` as the molecule, how does the Potency read?
**A.** inconclusive: 29.1 µM [rising, single point]

**Q.** With `COc1cc2c(cc1OC)C1=NC(=O)CN1C(SCc1ccccc1C)=N2` as the molecule, how does the Potency read?
**A.** inconclusive: 2.51 µM [cytotoxic, partial curve, poor fit]

**Q.** For `CCCCn1c(-c2sccc2C)n[nH]c1=S`, which “activity change, negative = cytotoxicity” value is on record?
**A.** inactive: -1.02%

**Q.** Which Potency does the source give for `CCOc1ccc(NC(=O)[C@H](C)NC(=O)C2CC(=O)N(c3ccc(OC)cc3)C2)cc1` (some centres undefined) here?
**A.** inconclusive: 16.4 µM [rising, partial curve]

**Q.** For `Cc1ccc(S(=O)(=O)N2[C@@H](c3cccc(Cl)c3)C(C(=O)OC(C)(C)C)=CC[C@H]2c2cccc(Cl)c2)cc1`, which “activity change, negative = cytotoxicity” value is on record?
**A.** inactive: 7.73%

**Q.** Which Potency does the source give for `O=C(NC1CCCC1)C1C(c2ccc(C(F)(F)F)cc2)=Nc2ccccc2N1C(=O)c1cccc2ccccc12` (centres undefined) here?
**A.** inconclusive: 13 µM [cytotoxic, partial curve, poor fit]

**Q.** With `Nc1nn2cc(-c3ccccc3)nc2c2ccccc12` as the molecule, how does the Potency read?
**A.** active: 16.4 µM

**Q.** For `O=C(NCc1ccccc1)C(c1ccccc1)N(Cc1ccc2c(c1)OCO2)C(=O)Cc1cccs1` (centres undefined), which Potency is on record?
**A.** active: 13 µM

**Q.** Which Potency does the source give for `C=CC[C@@H](Cc1ccc(F)cc1)C(=O)OC[C@@H]1CCCN1C(=O)[C@H](CC=C)CC(=O)N[C@H](CO)Cc1ccccc1` here?
**A.** inconclusive: 14.6 µM [cytotoxic, partial curve, poor fit]

**Q.** Which Potency does the source give for `C[C@@H]1CN([C@@H](C)CO)S(=O)(=O)c2ccc(Br)cc2O[C@H]1CN(C)C(=O)C1CCC1` here?
**A.** inconclusive: 29.1 µM [cytotoxic, single point]

**Q.** With `CC(C)(CSc1ncccn1)NS(=O)(=O)c1ccccc1` as the molecule, how does the “activity change, negative = cytotoxicity” value read?
**A.** inactive: 4.07%

**Q.** For `CCCCNC(=O)C[C@@H]1C[C@@]2(C(=O)OC)CC(C)(C)CC=C2N(Cc2ccc3c(c2)OCO3)C1=O`, which Potency is on record?
**A.** inconclusive: 4.61 µM [cytotoxic, partial curve]

**Q.** Which Potency does the source give for `O=C(NCCc1ccccc1)c1c[nH]c2ccccc2c1=O` here?
**A.** inconclusive: 23.1 µM [cytotoxic, single point]
